For this assay, the target named is T1, SIRT2FL-His6X (full length human sirtuin-2 with a C-terminal His6X tag) (human), Q8IXJ6.
T1 chain: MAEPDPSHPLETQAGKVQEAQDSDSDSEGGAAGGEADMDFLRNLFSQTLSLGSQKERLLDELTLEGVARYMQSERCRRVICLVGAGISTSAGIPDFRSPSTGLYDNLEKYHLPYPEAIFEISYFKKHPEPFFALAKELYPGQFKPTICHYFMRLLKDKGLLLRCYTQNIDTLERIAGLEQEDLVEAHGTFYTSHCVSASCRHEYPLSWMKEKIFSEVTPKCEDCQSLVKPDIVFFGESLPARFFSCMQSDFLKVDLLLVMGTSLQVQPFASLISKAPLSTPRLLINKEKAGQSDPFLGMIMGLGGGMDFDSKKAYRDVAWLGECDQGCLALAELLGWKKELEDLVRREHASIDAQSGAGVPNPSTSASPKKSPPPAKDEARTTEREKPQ
Briefly: SEC. Conditions: remark: other sources report otherwise.

These are yes or no findings as the source states them, for the method shown. Sequences can lack the tags named with a protein.

B1: SIRT2FL-His6X (full length human sirtuin-2 with a C-terminal His6X tag), Q8IXJ6 1-389 (enzyme)
chain: T1 chain
As to B1, the binding entry was “no binding”.

(Values after publication doi:10.1101/2025.09.23.677902.)
